Reference: publication PMC2697329
No constants are given. Whether binding was seen depends on the method and setting. Binding seen in cells or lysates may run through a third protein. Binding can be weak; no strength is given. For some assays here: Sequences can lack the tags named with a protein. Values belong to the molecule of their own block, whether it stands above or below them.

The chains behind the UniProt entries cited, without tags or fusion partners. Where a name states a change or a piece, a line headed by the entry shows the natural chain unless it says otherwise.
UniProt P27619: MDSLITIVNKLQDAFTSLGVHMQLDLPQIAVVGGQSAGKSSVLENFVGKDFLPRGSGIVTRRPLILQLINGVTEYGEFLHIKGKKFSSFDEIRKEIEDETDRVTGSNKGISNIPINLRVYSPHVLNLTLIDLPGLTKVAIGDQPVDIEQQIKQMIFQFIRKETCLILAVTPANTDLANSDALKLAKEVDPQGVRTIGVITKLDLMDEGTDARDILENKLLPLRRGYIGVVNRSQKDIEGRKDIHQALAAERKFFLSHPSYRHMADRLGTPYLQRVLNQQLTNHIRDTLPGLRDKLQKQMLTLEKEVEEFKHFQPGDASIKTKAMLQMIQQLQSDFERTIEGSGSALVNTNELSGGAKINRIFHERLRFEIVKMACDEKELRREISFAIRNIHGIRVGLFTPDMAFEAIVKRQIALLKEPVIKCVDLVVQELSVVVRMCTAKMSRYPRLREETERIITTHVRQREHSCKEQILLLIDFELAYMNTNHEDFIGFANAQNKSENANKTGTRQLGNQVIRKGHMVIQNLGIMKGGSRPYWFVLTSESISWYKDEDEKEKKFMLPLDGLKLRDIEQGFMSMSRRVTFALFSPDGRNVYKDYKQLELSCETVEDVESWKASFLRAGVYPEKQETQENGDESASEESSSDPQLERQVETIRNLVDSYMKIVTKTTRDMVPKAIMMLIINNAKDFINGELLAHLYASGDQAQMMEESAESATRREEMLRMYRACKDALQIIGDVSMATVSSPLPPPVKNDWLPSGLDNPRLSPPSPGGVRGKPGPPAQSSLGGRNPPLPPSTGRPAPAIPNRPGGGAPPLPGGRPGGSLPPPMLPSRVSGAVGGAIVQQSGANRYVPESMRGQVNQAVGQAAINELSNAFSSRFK

Experiments:
[1] = molecular target: T1, GST-tagged Synd, column-bound (construct with the SH3 domain) (Drosophila) (UniProt Q9VDI1); assay: pull-down; GST-tagged domains of Synd or GST on Glutathione sepharose beads, incubated with fly head lysate 1 h at 4 °C; 20 mM Tris Cl pH 7.5, 100 mM NaCl, 0.5% NP40, 0.5 mM EDTA; western blot with anti-Wsp antibody; only the target purified
T1 sequence: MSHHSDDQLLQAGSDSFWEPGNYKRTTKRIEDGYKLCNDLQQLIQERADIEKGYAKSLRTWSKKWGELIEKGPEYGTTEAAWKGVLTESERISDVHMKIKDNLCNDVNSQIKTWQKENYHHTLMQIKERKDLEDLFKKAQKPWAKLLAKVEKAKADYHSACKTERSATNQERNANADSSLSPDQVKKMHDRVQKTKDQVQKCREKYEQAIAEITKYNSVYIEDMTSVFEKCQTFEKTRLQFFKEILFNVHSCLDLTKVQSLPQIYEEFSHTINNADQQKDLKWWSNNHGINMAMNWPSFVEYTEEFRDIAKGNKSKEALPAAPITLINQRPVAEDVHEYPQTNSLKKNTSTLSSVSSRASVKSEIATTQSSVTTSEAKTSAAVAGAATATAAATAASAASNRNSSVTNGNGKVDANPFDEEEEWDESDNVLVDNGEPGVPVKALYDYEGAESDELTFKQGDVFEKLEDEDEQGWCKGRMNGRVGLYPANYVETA

[2] = molecular target: GST-shibire PRD (proline-rich domain of Drosophila dynamin) (Drosophila) (UniProt P27619); assay: pull-down; GST-Shi-PRD immobilized on glutathione-sepharose beads, incubated with Drosophila adult head lysate 1 h at 4 °C; 20 mM Tris Cl pH 7.5, 100 mM NaCl, 0.5% NP40, 0.5 mM EDTA; western blot with anti-Synd antibody; only the target purified

binding [1]: binds
Molecule: Drosophila WASp (Wsp), endogenous

binding [2]: binds
B1: Drosophila syndapin (Synd), endogenous (protein, UniProt Q9VDI1 1-494)
chain: T1 sequence
